Source: patent US9999621B2, “Medical use of artemisinin compounds and gephyrin agonists” (CeMM-Forschungszentrum für Molekulare Medizin GmbH, priority 2014, dated 2018)
Where two headings read alike, the source gives them in different places. At least one structure is not confirmed: it was looked up by name or label, or the drawing left a doubt.

Test system: aTC1 cells
Experiment: GABAR antagonists combined with artemether, insulin immunofluorescence
Assay type: cell-based, mouse

## CN1CCc2cc3c(cc2[C@H]1[C@@H]1OC(=O)c2c1ccc1c2OCO1)OCO3 [bicuculline]
  effect of GABAR antagonist on the effects of artemether: inhibited the effects of artemether
Listed as Bicuculine
  effect of GABAR antagonist on the effects of artemether: inhibits the effects of Artemether
